{"source": "PubChem BioAssay AID1508597, Cure First – 2020", "assay": "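Knock-downs altering ovarian cancer cell survival with or without PARP inhibitor rucaparib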 (primary screen)", "system": "human ovarian carcinoma lines grown from tumours: OCI-P5x (papillary serous) and OCI-C5x (clear cell)", "reagent": "siRNA pool against human genes, 1.25 pmol siRNA per well", "time to read-out": "72 h or 96 h, depending on the cell culture", "challenge": "rucaparib 20 µM (about IC30) or vehicle, present until read-out", "rucaparib or vehicle": "Rucaparib", "cell line": "OCI-P5x (serous)", "read-out": "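Luminescent ATP-based viability assay read 72 or 96 h after transfection, depending on culture, given as normalised percent viability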", "reading the numbers": "viability, normalised: higher = more viable cells remaining", "call rule": "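Active when normalised viability falls below 80 percent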", "meaning of the calls": "active = viability under 80%; inactive = viability 80% or more", "note": "Shown is an unselected part of the about 2,100 reagents, under one of the conditions tested. 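Calls flag viability under 80% in either arm, not effects specific to rucaparib; the reference for percent is not stated.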 Unmarked entries are inactive. A reagent listed more than once was tested more than once; the source does not tell the runs apart. No sequences are given here. Not given: the 100% reference."}
{"gene": "NEIL3", "technical replicate": "1", "viability, normalised (%)": "72.7 (active)"}
{"gene": "NEIL3", "technical replicate": "2", "viability, normalised (%)": "62.1 (active)"}
{"gene": "NEIL3", "technical replicate": "3", "viability, normalised (%)": "59.9 (active)"}
{"gene": "KPNA4", "technical replicate": "1", "viability, normalised (%)": "74.2 (active)"}
{"gene": "KPNA4", "technical replicate": "2", "viability, normalised (%)": 81.8}
{"gene": "KPNA4", "technical replicate": "3", "viability, normalised (%)": "62.6 (active)"}
{"gene": "DTX3L", "technical replicate": "1", "viability, normalised (%)": "62 (active)"}
{"gene": "DTX3L", "technical replicate": "2", "viability, normalised (%)": "54.4 (active)"}
{"gene": "DTX3L", "technical replicate": "3", "viability, normalised (%)": "65.5 (active)"}
{"gene": "LIG1", "technical replicate": "1", "viability, normalised (%)": "75.3 (active)"}
{"gene": "LIG1", "technical replicate": "2", "viability, normalised (%)": 84.5}
{"gene": "LIG1", "technical replicate": "3", "viability, normalised (%)": "62.7 (active)"}
{"gene": "SRPK2", "technical replicate": "1", "viability, normalised (%)": 91.3}
{"gene": "SRPK2", "technical replicate": "2", "viability, normalised (%)": 89.3}
{"gene": "SRPK2", "technical replicate": "3", "viability, normalised (%)": 86.7}
{"gene": "DEAF1", "technical replicate": "1", "viability, normalised (%)": "72.6 (active)"}
{"gene": "DEAF1", "technical replicate": "2", "viability, normalised (%)": "77.2 (active)"}
{"gene": "DEAF1", "technical replicate": "3", "viability, normalised (%)": "63.9 (active)"}
{"gene": "FOS", "technical replicate": "1", "viability, normalised (%)": "61.2 (active)"}
{"gene": "FOS", "technical replicate": "2", "viability, normalised (%)": "66.2 (active)"}
{"gene": "FOS", "technical replicate": "3", "viability, normalised (%)": 82.6}
{"gene": "PHKA1", "technical replicate": "1", "viability, normalised (%)": 118}
{"gene": "PHKA1", "technical replicate": "2", "viability, normalised (%)": 103}
{"gene": "PHKA1", "technical replicate": "3", "viability, normalised (%)": 81.8}
{"gene": "PRKAG3", "technical replicate": "1", "viability, normalised (%)": 91.6}
{"gene": "PRKAG3", "technical replicate": "2", "viability, normalised (%)": 96.1}
{"gene": "PRKAG3", "technical replicate": "3", "viability, normalised (%)": 95.9}
{"gene": "TBL1XR1", "technical replicate": "1", "viability, normalised (%)": "63.9 (active)"}
{"gene": "TBL1XR1", "technical replicate": "1", "viability, normalised (%)": "31.2 (active)"}
{"gene": "TBL1XR1", "technical replicate": "2", "viability, normalised (%)": 83.9}
{"gene": "TBL1XR1", "technical replicate": "2", "viability, normalised (%)": "33.3 (active)"}
{"gene": "TBL1XR1", "technical replicate": "3", "viability, normalised (%)": "32.2 (active)"}
{"gene": "TBL1XR1", "technical replicate": "3", "viability, normalised (%)": "76.3 (active)"}
{"gene": "SUV39H1", "technical replicate": "1", "viability, normalised (%)": "66.3 (active)"}
{"gene": "SUV39H1", "technical replicate": "1", "viability, normalised (%)": 89.8}
{"gene": "SUV39H1", "technical replicate": "2", "viability, normalised (%)": 92.3}
{"gene": "SUV39H1", "technical replicate": "2", "viability, normalised (%)": "72.3 (active)"}
{"gene": "SUV39H1", "technical replicate": "3", "viability, normalised (%)": 87.2}
{"gene": "SUV39H1", "technical replicate": "3", "viability, normalised (%)": "66.8 (active)"}
{"gene": "NEIL2", "technical replicate": "1", "viability, normalised (%)": 93.2}
{"gene": "NEIL2", "technical replicate": "2", "viability, normalised (%)": "72.5 (active)"}
{"gene": "NEIL2", "technical replicate": "3", "viability, normalised (%)": "69.5 (active)"}
